{"sequences": {"note": "Protein sequences, listed by entry. Tags and fused reporters are not part of them. Lines headed by an entry give the natural chain unless they say otherwise; changes in a name come on top.", "UniProt P42003": "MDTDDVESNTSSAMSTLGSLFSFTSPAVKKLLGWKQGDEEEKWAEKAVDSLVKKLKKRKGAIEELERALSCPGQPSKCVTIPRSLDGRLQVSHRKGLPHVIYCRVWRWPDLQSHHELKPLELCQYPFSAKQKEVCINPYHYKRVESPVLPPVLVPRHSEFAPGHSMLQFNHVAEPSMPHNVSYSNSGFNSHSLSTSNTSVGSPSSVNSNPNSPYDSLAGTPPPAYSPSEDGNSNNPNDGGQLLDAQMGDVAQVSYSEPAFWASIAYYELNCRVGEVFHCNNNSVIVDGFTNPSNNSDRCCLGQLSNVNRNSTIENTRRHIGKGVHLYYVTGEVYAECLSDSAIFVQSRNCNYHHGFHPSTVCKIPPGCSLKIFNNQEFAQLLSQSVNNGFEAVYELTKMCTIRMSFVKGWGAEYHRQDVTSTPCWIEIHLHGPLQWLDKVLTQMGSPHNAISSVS"}, "source": "patent US20020137662", "key": {"[1]": {"target": "Mad (UniProt P42003)", "test": "activity in cells", "conditions": "Mad plus Medea activate LRR-lacZ reporter in S2 cells; effect of dCtBP inhibition tested; protein in cells; only the site is given"}, "[2]": {"target": "T1, Medea (UniProt O62609)", "T1 sequence (looked up, limits assumed)": "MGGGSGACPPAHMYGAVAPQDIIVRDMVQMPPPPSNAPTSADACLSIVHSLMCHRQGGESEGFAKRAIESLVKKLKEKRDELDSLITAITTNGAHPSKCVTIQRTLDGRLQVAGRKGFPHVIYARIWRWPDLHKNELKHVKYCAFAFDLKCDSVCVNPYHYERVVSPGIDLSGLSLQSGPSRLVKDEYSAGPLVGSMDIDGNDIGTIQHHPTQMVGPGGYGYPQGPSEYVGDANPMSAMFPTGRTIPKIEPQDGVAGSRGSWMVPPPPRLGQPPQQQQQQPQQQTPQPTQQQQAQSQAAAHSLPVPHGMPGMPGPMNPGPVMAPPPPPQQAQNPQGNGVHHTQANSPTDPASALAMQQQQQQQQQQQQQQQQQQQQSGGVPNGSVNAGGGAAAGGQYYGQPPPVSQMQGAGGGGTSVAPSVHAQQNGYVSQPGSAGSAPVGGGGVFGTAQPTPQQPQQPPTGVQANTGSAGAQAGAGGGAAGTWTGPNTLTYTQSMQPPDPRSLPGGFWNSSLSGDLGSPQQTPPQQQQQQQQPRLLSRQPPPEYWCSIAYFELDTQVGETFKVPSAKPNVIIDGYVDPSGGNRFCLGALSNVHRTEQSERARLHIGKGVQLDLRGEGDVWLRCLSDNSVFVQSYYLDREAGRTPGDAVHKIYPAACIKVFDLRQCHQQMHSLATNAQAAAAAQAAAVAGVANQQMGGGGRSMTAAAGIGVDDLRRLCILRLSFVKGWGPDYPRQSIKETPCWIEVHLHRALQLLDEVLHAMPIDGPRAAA", "test": "activity in cells", "conditions": "Mad plus Medea activate LRR-lacZ reporter in S2 cells; effect of dCtBP inhibition tested; protein in cells; only the site is given"}}, "note": "For some assays here: Protein sequences can lack the tags named with them."}
{"sequence": "AGACGTCTGTCT (double strand) [LRR Smad box repeat]", "values": [{"measurement": "activity on this sequence", "setting": "[1]", "result": "active"}, {"measurement": "activity on this sequence", "setting": "[2]", "result": "active"}]}
